In PubChem BioAssay AID493014 (National Center for Advancing Translational Sciences (NCATS), 2011) one finds AC50 data, which are given here for 18 molecules.

Each structure is given as a SMILES string. Some of the results follow. The main result of the screen is listed elsewhere. These columns were measured beside it and carry no call. The list favours compounds with an active or inconclusive main result. The note in brackets gives the kind of curve behind each potency; many fits are weak.

The nature of the assay: qHTS Assay to Find Inhibitors of Chronic Active B-Cell Receptor Signaling. Particulars: ABC-DLBCL IkBa-CBG/CBR reporter, luminescence ratio (green luciferase fused to IkBa over red control in TMD8 lymphoma cells), 4 h. In short, it runs like this:
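Doxycycline induced both beetle luciferases in TMD8 lymphoma cells; IKK-driven degradation limits the IkappaBalpha-fused green signal, while red luminescence normalises for cell number and nonspecific effects. Compounds tested up to 46 uM, 4 hrs.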

The mark [1] stands for this setting: measured here: CBR red luminescence, cell number.

Turning to `CC(=O)Nc1cccc(Nc2nc(-c3cccs3)nc3ccccc23)c1`, under setting [1], the AC50 is 12.6 µM [falling, single point].

With `COc1ccc(-n2c(C)c(C(=O)O)c3cc(OC)c4ccccc4c32)cc1`, the AC50 under setting [1] was 35.5 µM [falling, single point].

In the case of `O=[N+]([O-])c1cccc(NN=Nc2ccccc2)c1`, the AC50 under setting [1] was 0.794 µM [rising, partial curve, poor fit].

Consider `CCOC(=O)c1c(C)[nH]c(C(=O)Nc2ccc(C)c(Cl)c2)c1C`, for which the half-maximal activity concentration (AC50) under setting [1] is 32.6 µM [falling, single point].

As to `Cc1ccccc1/C=N/NC(=O)c1ccc(-n2cnnn2)cc1`, under setting [1], the half-maximal activity concentration (AC50) was 25.9 µM [falling, single point].

`Cc1nnsc1C(=O)NC1CCCc2c1cnn2-c1ccc(C(C)(C)C)cc1` (centres undefined): under setting [1], the concentration at half-maximal activity (AC50) was 35.5 µM [falling, single point].

In the case of `COc1cc(/C=C2\S/C(=N/S(=O)(=O)c3ccc(C)cc3)NC2=O)c([N+](=O)[O-])cc1OC`, the AC50 is 14.6 µM [rising, partial curve] under setting [1] and 20.6 µM [falling, partial curve] (measured here: IkBa-CBG green luminescence).

Take `Cc1c(NS(C)(=O)=O)c(=O)n(-c2ccccc2)n1C`: the AC50 under setting [1] is 6.51 µM [rising, single point].

For `Cc1ccc(C(=O)N/C(=C\c2ccc(-c3ccc(Cl)cc3)o2)C(=O)NCCCN(C)C)cc1`, under setting [1], the AC50 was 35.5 µM [falling, single point].

With `Nc1nc(-c2ccco2)nn1C(=O)c1ccccc1Cl`, under setting [1], the AC50 is 3.98 µM [falling, full curve, poor fit].

In the case of `Cc1ccc(C)c2[nH]c(=O)c(CCNC(=O)c3cccs3)cc12`, the AC50 under setting [1] was 2.59 µM [rising, full curve].

Regarding `Brc1cccc2sc(N3CCCC3)nc12`, the half-maximal activity concentration (AC50) under setting [1] is 11.2 µM [rising, single point].

For `CC(=O)Oc1ccc(C(=O)Nc2ccccc2NC(=O)c2ccc(OC(C)=O)cc2)cc1`, the AC50 under setting [1] is 4.47 µM [falling, partial curve].

Turning to `O=C(CN1C(=O)c2cccnc2Oc2ccc(Cl)cc21)NCCCc1ccccc1`, the AC50 under setting [1] is 2.82 µM [falling, partial curve, poor fit].

For `CCN(CC)C(=O)Cn1nc(C)c2ccccc2c1=O`, the AC50 under setting [1] is 29.1 µM [rising, single point].

With `Cc1nc2ccc(NC(=S)NC3CCCCC3)cc2nc1C`, the concentration at half-maximal activity (AC50) under setting [1] was 4.47 µM [falling, partial curve, poor fit].

As for `CCCSc1nc(C)c2cc(C)cc(C)c2n1`, the AC50 under setting [1] was 4.11 µM [rising, full curve].

For `CC(=O)Oc1ccc2c(c1)C(=O)c1ccccc1C2=O`, the half-maximal activity concentration (AC50) under setting [1] is 0.794 µM [rising, full curve, poor fit].

Usually AC50 stands for the concentration at which the activity in the assay is half-maximal.
